# Data from PMC7819943, “Rice protein-binding microarrays: a tool to detect cis-acting elements near promoter regions in rice”.
# Amino acid sequences for entries named in this document (tags omitted).
# UniProt Q0JBA9, entry or part of it: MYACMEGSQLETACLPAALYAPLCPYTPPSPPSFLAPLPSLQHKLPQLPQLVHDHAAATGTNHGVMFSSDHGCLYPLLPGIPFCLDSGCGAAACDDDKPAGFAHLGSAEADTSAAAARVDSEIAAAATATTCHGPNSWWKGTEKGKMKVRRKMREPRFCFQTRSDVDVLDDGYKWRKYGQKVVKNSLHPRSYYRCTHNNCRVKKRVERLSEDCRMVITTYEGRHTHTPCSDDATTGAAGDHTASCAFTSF
# Some of the results follow.
# Molecular target: OsWRKY34 (Oryza sativa, UniProt Q0JBA9 1-250)
# Assay: protein-binding microarray (RPBM); PBS, 2% BSA, 51.3 ng/ul salmon testes DNA, 50 uM zinc acetate, 200 nM TF, 25 C, 1 h; high values mean tight binding
# Details: protein: recombinant; tags: N-terminal polyhistidine and DsRed monomer fusion (pET32a); label: CyDye5-dUTP incorporated in the synthesized complementary strand; 3' TTTTT single-stranded linker to array surface; dsDNA, one strand shown
# Procedure, shortened: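 Binding signal is reported as fluorescence intensity per feature (arbitrary units) from an Axon 4000B scanner. Incubation used 200 nM of each Ni–NTA-purified, N-terminally polyhistidine- and DsRed-fused transcription factor from E. coli BL21-CodonPlus on a double-stranded custom Agilent array for 1 h at 25 °C, with 50 µM zinc acetate in the buffer, followed by washing.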
row,Sequence,binding signal
1,CTCACATGTTGAACATCTCCCTGTACTTACTGACAAGTGACGGAGTCACCTAGTGCAG,8480 fluorescence intensity (a.u.)
2,GGTTCTTGCCTCTTTCTTTGAGGACTCGCCCGCCCAACAGCGGAGTCACCTAGTGCAG,9980 fluorescence intensity (a.u.)
3,TTGGTTCGGTCGCTCCGTTCCTCCGGCTTCCGCCTTTCCTCGGAGTCACCTAGTGCAG,9410 fluorescence intensity (a.u.)
4,TCTCATGGTCTTTCTCGATGGGTAGGATGCGTTCTTTATTCGGAGTCACCTAGTGCAG,8220 fluorescence intensity (a.u.)
5,TCTTCCGCCGCTACTGCCGCCACCGCCACCTCCGCCTCCACGGAGTCACCTAGTGCAG,10200 fluorescence intensity (a.u.)
6,AACATCGCACACTGCCCTTGCAATTCACAACTATTTATATCGGAGTCACCTAGTGCAG,8970 fluorescence intensity (a.u.)
7,GTCGTTCTGTCCGGTTTTCTGGTTGAGGGGTACGAATTAGCGGAGTCACCTAGTGCAG,9020 fluorescence intensity (a.u.)
8,TCCATGGTCTTCTTCCGTTCGCCCTCGCTTTCTTCCCGCACGGAGTCACCTAGTGCAG,12700 fluorescence intensity (a.u.)
9,ACCCAATTCTACTTACTGGCTACTAATCTGAATCAAATTTCGGAGTCACCTAGTGCAG,9440 fluorescence intensity (a.u.)
10,TCTCTCTCTCTCTCTCTCTCTGCTGCACTACTAGCTAGCTCGGAGTCACCTAGTGCAG,9910 fluorescence intensity (a.u.)
11,GGAGAGGATGTAGGTTGAGTTTTTTTTTGGGACGGAGGGACGGAGTCACCTAGTGCAG,10800 fluorescence intensity (a.u.)
12,TGCTGGTTCTGCTCCTTCGCTGTTTAGACGCGTAATCCGCCGGAGTCACCTAGTGCAG,8660 fluorescence intensity (a.u.)
13,GATGACCAGATGTTTTGCTTTTTTCCTCGTATTTTTCTAGCGGAGTCACCTAGTGCAG,8050 fluorescence intensity (a.u.)
14,GCACACAAGCAAGCGGCCTCATCTGTTTTATTGTTTTTCTCGGAGTCACCTAGTGCAG,9580 fluorescence intensity (a.u.)
15,CACAACTTTTCGTTTTTTATATTTGCACAAATTTTTTAATCGGAGTCACCTAGTGCAG,8650 fluorescence intensity (a.u.)
16,CCGCTTCGTCTCTCTCTCTCTCTCGCTTTCCTCTCTTATACGGAGTCACCTAGTGCAG,12300 fluorescence intensity (a.u.)
17,ATTTTATTTTTTTTCCTTTTGTGCTCGACAGGGTTGTATTCGGAGTCACCTAGTGCAG,8630 fluorescence intensity (a.u.)
18,ACCTGTTAACCTGTGCAAGATGGTTGCTACTATACTACTGCGGAGTCACCTAGTGCAG,8870 fluorescence intensity (a.u.)
19,AGGGAATTTCCCGTTCTTGCGCTCCTGGATTTCTTGCCCACGGAGTCACCTAGTGCAG,9560 fluorescence intensity (a.u.)
20,GGTAGCAGAGGAACTCTTCTTGCTGTTGCTAATTCTGGGGCGGAGTCACCTAGTGCAG,10200 fluorescence intensity (a.u.)
21,CCAGAGCGCCGATTTTTTTTTTATTCCTTGTTTCCCGATTCGGAGTCACCTAGTGCAG,8840 fluorescence intensity (a.u.)

row,Sequence,binding signal
1,TATTATTCGTCAGAAGTTTTGTCCAAGTTTCTTTGTTCTTCGGAGTCACCTAGTGCAG,9840 fluorescence intensity (a.u.)
2,TGTCTGAATGCACTGATACACATCTACCCATAGTACTATACGGAGTCACCTAGTGCAG,8860 fluorescence intensity (a.u.)
3,TCTTTCATATGTTCTTTATGTTTTTGACTCACGCGTATTACGGAGTCACCTAGTGCAG,10500 fluorescence intensity (a.u.)
4,GCCCGCCGCTCCACCCACCGCCGTCGCGTCGGCCGTCGCCCGGAGTCACCTAGTGCAG,8660 fluorescence intensity (a.u.)
5,CGTCTGCAGTTTTATTCCTTACCTCGTTGCTCGGAGGCAACGGAGTCACCTAGTGCAG,10900 fluorescence intensity (a.u.)
6,CTTCCTTGTCGTGCCGTGCGAGGTCCCCTTCCGTGAAGTACGGAGTCACCTAGTGCAG,9350 fluorescence intensity (a.u.)
7,CATACTGTTCCACTCGCCCTCGTTTTCTCCGCCACCGAGCCGGAGTCACCTAGTGCAG,8450 fluorescence intensity (a.u.)
8,AGAGGAGAGGAGGGTTCAGATGTGGTGGGTCTATATAGCGCGGAGTCACCTAGTGCAG,9610 fluorescence intensity (a.u.)
9,TGCACCATTTTGCCGTTTGTCATACTAGTAGCTCATTATTCGGAGTCACCTAGTGCAG,9480 fluorescence intensity (a.u.)
10,CTGTGGTGGACTTCATTGTGATATACCATGTTTGAGGGTTCGGAGTCACCTAGTGCAG,9770 fluorescence intensity (a.u.)
11,CTCGGGCTGTTCTACTCCCCTTCGATGGCATCGTGGCTTCCGGAGTCACCTAGTGCAG,9470 fluorescence intensity (a.u.)
12,CCAAGCGCTCAATTTTTTTACTTACCCCTCATCTCTTTTGCGGAGTCACCTAGTGCAG,8660 fluorescence intensity (a.u.)
13,TCTCTTTTTTTTTCACCATGACCTTATCTGCTATTTTATACGGAGTCACCTAGTGCAG,14700 fluorescence intensity (a.u.)
14,CAGTGTATATTTCAGTGTATATTTGGTAGATTTGGTAGTACGGAGTCACCTAGTGCAG,8310 fluorescence intensity (a.u.)
15,CCTATATGTATTGTTGCAGCATCTCTACTCTCTACTACTTCGGAGTCACCTAGTGCAG,10000 fluorescence intensity (a.u.)
16,GGAAACGGCCGTGCGGCATGGATCTGGGCGGGAGGAGCAACGGAGTCACCTAGTGCAG,8930 fluorescence intensity (a.u.)
17,ACGTGTTTGACCATTCGTTTTATTCAAATCATTTAAGTAACGGAGTCACCTAGTGCAG,9230 fluorescence intensity (a.u.)
18,TCCACTCTATGTTCCACCACAACCCCTTCATTTCATGGTTCGGAGTCACCTAGTGCAG,8650 fluorescence intensity (a.u.)
19,GCACCGTACTGTGCACGTCATCCATTTGTCTGTTTGTGTTCGGAGTCACCTAGTGCAG,9380 fluorescence intensity (a.u.)
20,CCATATTTCGACTTCTAGCAGTACCATTCTTCCTCTGAAACGGAGTCACCTAGTGCAG,8400 fluorescence intensity (a.u.)
21,CCGAGATACCCGCCACCACTCCTCTCAGTTTCAATCTATACGGAGTCACCTAGTGCAG,8910 fluorescence intensity (a.u.)

row,Sequence,binding signal
1,TAGCGTTCAACGAATCGTCCCGCGTCGGATGTCTGTTTTTCGGAGTCACCTAGTGCAG,8870 fluorescence intensity (a.u.)
2,GTTTATTCCCTTGTGTTGGTTGTTGCACATGTCCCTTTCTCGGAGTCACCTAGTGCAG,8900 fluorescence intensity (a.u.)
3,CTGTTCTTGGTAGCATTGACCCTGCACCTTTTGTTCCATTCGGAGTCACCTAGTGCAG,9160 fluorescence intensity (a.u.)
4,ACGAACTAGAGCTACATACTTTACCCGTTTTTCCTCCTTACGGAGTCACCTAGTGCAG,10300 fluorescence intensity (a.u.)
5,ATGGTGGAGAGGGGAAAAAGCTAGGGTTTGCAAGAAGTTACGGAGTCACCTAGTGCAG,9620 fluorescence intensity (a.u.)
6,GGATAACACACATTAGCCCTGCCTCGCGTCATACTGAGTACGGAGTCACCTAGTGCAG,8540 fluorescence intensity (a.u.)
7,GCTATTTCTCTTTGCCAATCACTTCCCCTTTCTTTTGTGACGGAGTCACCTAGTGCAG,9240 fluorescence intensity (a.u.)
8,ATTTTCCACACTTTGGCCTGGTTTAGTTCCTAAATTTTTCCGGAGTCACCTAGTGCAG,11900 fluorescence intensity (a.u.)
9,CTCCACCCTATCGCGCCTTCTCTTCCATCGCCACGGCCCACGGAGTCACCTAGTGCAG,8850 fluorescence intensity (a.u.)
10,ATTGGTATTGCTGATGAACATTTTGGTGCTGTCGTACGACCGGAGTCACCTAGTGCAG,10600 fluorescence intensity (a.u.)
11,TTAGATCGAACGGTGATGGTATTGGCCCATGGGCCTCATTCGGAGTCACCTAGTGCAG,8590 fluorescence intensity (a.u.)
12,TTTTGATCATCCATTTTGTCTATTATCTGTGTCTAACTAACGGAGTCACCTAGTGCAG,8710 fluorescence intensity (a.u.)
13,TTTATGCGTGACTTACCTTTTTATTTATTTTCATATTTTTCGGAGTCACCTAGTGCAG,10500 fluorescence intensity (a.u.)
14,TGCCGCCGTTCTTGTCCGCCGCCGCTGCCCGACGCCAAATCGGAGTCACCTAGTGCAG,8140 fluorescence intensity (a.u.)
15,TCTCGATTCATGATTCTCTCTTTTATAGGTGCTGTCCTCTCGGAGTCACCTAGTGCAG,9000 fluorescence intensity (a.u.)
16,TCCACCGTTCTTCTCGTTCAATCGGCGGGCAACTGCTGTTCGGAGTCACCTAGTGCAG,8400 fluorescence intensity (a.u.)
17,GGTAATTTGTTTCTCCATCTTTCTTTCATTAGTGCTTGACCGGAGTCACCTAGTGCAG,12500 fluorescence intensity (a.u.)
18,GCGCTCATGGAGGGCTGGTTGAGGAGGGGATTGGGTGCTTCGGAGTCACCTAGTGCAG,9930 fluorescence intensity (a.u.)
19,GTCATTTCTCTATTTTTTCCCGCGTTTTGCTATCATCTGTCGGAGTCACCTAGTGCAG,16200 fluorescence intensity (a.u.)
20,CTTGCCATCTTTCACCATACTTCTAAATACCCAAAATTCTCGGAGTCACCTAGTGCAG,8290 fluorescence intensity (a.u.)
21,AATCCCTCATCCGAGTAATCTCCTATCCCTTGGTAACAATCGGAGTCACCTAGTGCAG,8410 fluorescence intensity (a.u.)

# A second format for part of the listing above:
row	Sequence	binding signal
2	GTTTATTCCCTTGTGTTGGTTGTTGCACATGTCCCTTTCTCGGAGTCACCTAGTGCAG	8900 fluorescence intensity (a.u.)
3	CTGTTCTTGGTAGCATTGACCCTGCACCTTTTGTTCCATTCGGAGTCACCTAGTGCAG	9160 fluorescence intensity (a.u.)
4	ACGAACTAGAGCTACATACTTTACCCGTTTTTCCTCCTTACGGAGTCACCTAGTGCAG	10300 fluorescence intensity (a.u.)
5	ATGGTGGAGAGGGGAAAAAGCTAGGGTTTGCAAGAAGTTACGGAGTCACCTAGTGCAG	9620 fluorescence intensity (a.u.)

# A portion of the results above:
row,Sequence,binding signal
14,TGCCGCCGTTCTTGTCCGCCGCCGCTGCCCGACGCCAAATCGGAGTCACCTAGTGCAG,8140 fluorescence intensity (a.u.)
15,TCTCGATTCATGATTCTCTCTTTTATAGGTGCTGTCCTCTCGGAGTCACCTAGTGCAG,9000 fluorescence intensity (a.u.)

# Continued:

row,Sequence,binding signal
1,GTGCATGGATCATCTTCCTTTTCCCCTCTGCGCTCGGCGCCGGAGTCACCTAGTGCAG,8340 fluorescence intensity (a.u.)
2,TAGTGGTCAAAGTTAAAAATGTTTGACTTGTCACTGTGCTCGGAGTCACCTAGTGCAG,9180 fluorescence intensity (a.u.)
3,CACCCACCACCTCCCTTGTCGTCTCCGCGCTTCGCTCCGGCGGAGTCACCTAGTGCAG,8890 fluorescence intensity (a.u.)
4,AATTATTTTATAAATGTGTTATCCTTAAGGGGTCTTTTTTCGGAGTCACCTAGTGCAG,10200 fluorescence intensity (a.u.)
5,GCTGAGGCCGGCTTCCACCGCCGGTGAGGTGATCACCCGCCGGAGTCACCTAGTGCAG,8060 fluorescence intensity (a.u.)
6,GATCTAAACATGGCCTTAATTTATCGTCATAATTAAATGACGGAGTCACCTAGTGCAG,8420 fluorescence intensity (a.u.)
7,ATTTCTAACTTTTTTTCCCATTGTTTTGTTTGTCTTATTTCGGAGTCACCTAGTGCAG,8920 fluorescence intensity (a.u.)
8,TACGATCCCTACCGTCCAGTGTCCACCACGATTTCACCCTCGGAGTCACCTAGTGCAG,10000 fluorescence intensity (a.u.)
9,CTTCCTAGTAACTTCTCTCTTTGTGCGTTAGATCATTATTCGGAGTCACCTAGTGCAG,8240 fluorescence intensity (a.u.)
10,TTGAGAGCTGGAGGCGCAGGCTGGGATCGGCGGAGCCATGCGGAGTCACCTAGTGCAG,63200 fluorescence intensity (a.u.)
11,CACTAATTACTTTCGCATCCTACGTGCATTTACTTAATCCCGGAGTCACCTAGTGCAG,8760 fluorescence intensity (a.u.)
12,GGTCCTCAAATCATTTGTTGCTTGGGGCTGTTTCTGTTTGCGGAGTCACCTAGTGCAG,11300 fluorescence intensity (a.u.)
13,GCGCCTGTTTTCATCTCATCCTCCTCTCTTGTGGTTTCTTCGGAGTCACCTAGTGCAG,9450 fluorescence intensity (a.u.)
14,TTCTTCGAATCCCTAGCATCACATCTTCTGCTACTCTGCTCGGAGTCACCTAGTGCAG,9420 fluorescence intensity (a.u.)
15,GCCTTTCTATAGTACTCTATTATACTTGCTCTTAGTAATACGGAGTCACCTAGTGCAG,8870 fluorescence intensity (a.u.)
16,CGGGATGATGGTTGTGTTTTTACCGCTGTTCTTTTTGTCGCGGAGTCACCTAGTGCAG,11200 fluorescence intensity (a.u.)
17,TACTAGTTTGGTTCTCACTACTCACCACTCAGCATAATCTCGGAGTCACCTAGTGCAG,9330 fluorescence intensity (a.u.)
18,CTCTCCTCGCTTCCCGGGTTTGATACGTGGTACGTGACGCCGGAGTCACCTAGTGCAG,8680 fluorescence intensity (a.u.)
19,GGGGCCGGGCGGGGCGGCCAGGTTGGTTTGCTTGGTTCCACGGAGTCACCTAGTGCAG,13500 fluorescence intensity (a.u.)
20,TCTGTTTGGTCAAACTTCTCTTCCTCTTACCAGCATATCACGGAGTCACCTAGTGCAG,10800 fluorescence intensity (a.u.)
21,GAATACTTTGCATATACCACGTACGCCGTGCTGCCAACTACGGAGTCACCTAGTGCAG,8210 fluorescence intensity (a.u.)
